In patent publication US20250381223A1:
Results are given in words; binding and its absence hold for the method and conditions named. Some entries that bind do so weakly or less than the wild type.

By UniProt entry, the sequences of proteins in these tests, tags left out. Where a name states a change or a piece, a line headed by the entry shows the natural chain unless it says otherwise. Chains listed by the source or under a name are the forms on record and can include a tag or linker. Residues count along the entry.
mesothelin-Fc recombinant protein (Q13421, form named): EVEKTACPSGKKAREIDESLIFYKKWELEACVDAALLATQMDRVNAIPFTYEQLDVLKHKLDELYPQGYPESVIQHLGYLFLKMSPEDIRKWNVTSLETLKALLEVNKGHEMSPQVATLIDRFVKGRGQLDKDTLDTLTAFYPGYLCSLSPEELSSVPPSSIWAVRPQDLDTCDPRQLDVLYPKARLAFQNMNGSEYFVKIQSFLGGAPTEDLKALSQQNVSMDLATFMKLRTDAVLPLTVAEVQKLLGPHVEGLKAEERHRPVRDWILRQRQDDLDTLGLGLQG
UniProt P25942, residues 21-193: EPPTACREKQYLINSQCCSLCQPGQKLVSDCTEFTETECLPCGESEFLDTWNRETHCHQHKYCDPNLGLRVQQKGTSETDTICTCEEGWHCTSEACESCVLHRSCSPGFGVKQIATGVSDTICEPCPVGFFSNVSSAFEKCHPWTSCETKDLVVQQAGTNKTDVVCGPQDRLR

Assays:
[1] = target: mesothelin-Fc recombinant protein (human) (UniProt Q13421); experiment: flow cytometry (FACS staining) of CAR-T cells with mesothelin-Fc
[2] = target: CD40-Fc (not stated for this staining reagent (paragraph 357 names a recombinant human CD40-Fc for the phage screening)) (UniProt P25942); experiment: flow cytometry of T cells expressing the diabody, CD40-Fc + PE-anti-Fc

| binding [1] | binding [2] | Binder |
| --- | --- | --- |
| binds |  | anti-mesothelin scFv-M12 (scFv) scFv: AIRLTQSPSLLSASVGDRVTVTCRASQGGGNYLAWYQQKPGKAPKLLIYGASKLQSGVPSRFSGSGSGTEFTLTISSLQPEDFATYYCQQLNSYPVTFGQGTKVDIKGGGGSGGGGSGGGGSEVQLVESGAEVKKPGASVKVSCKASGYTFTTYYIHWVRQAPGQGLEWMGIINPSSGSTTYTQKFQGRVTMTRDTSTSTVYIELSGLRSEDTAVYYCARGETLRGYFDYWGQGTLVTVSS |
| binds |  | anti-mesothelin scFv-M6 (scFv) scFv: EIVMTQSPATLSLSPGERATLSCRASQSIGNSLAWYQQKPGQAPRLLIYDVSNRATGIPARFSGSGSGTDFTLTISSLEPEDFAVYYCQHRYSWPLTFGGGTKVEIKGGGGSGGGGSGGGGSQVQLVQSGGGLVKPGGSLRLSCAASGFTFSDYYMSWIRQAPGKGLEWVSYISSSGSTIYYADSVKGRFTISRDNAKNSLYLQMNSLRAEDTAVYYCARDGYRTHNWFDPWGQGTLVTVSS |
| binds |  | anti-mesothelin scFv-M37 (scFv) scFv: DIVMTQTPSSLSASVGDRVTITCRASQGISNYLAWFQQKPGKAPKPLIYAASSLQSGVPSKFSGSGSGTDFTLTISNLQPEDFATYICQQYSSYPITFGQGTRLEIKGGGGSGGGGSGGGGSQLQLQESGPGLVKPSETLSLTCAVSGGSISPYYWTWIRQSPGKAMEWMGYIHYSGRTNYNPSLESRATFSVDTSKNQISLKLNSVTAADTAVYYCTKVGDPGLFDYWGPGTLVTVSS |
| binds |  | anti-mesothelin scFv-M24 (scFv) scFv: QPVLTQPPSASGTPGQRVTISCSGSSSNIGSNYVYWYQQFPGTAPKLLIYMNNQRPSGVPDRFSGSKSGTSASLAISGLRSEDEADYYCAARDDSLSGYVTFGGGTKLTVLGGGGSGGGGSGGGGSEVHLVESGGGLVQPGGSLRLSCAASGFTFSSYAMSWVRQAPGKGLEWVSAISGSGGSTYYADSVKGRFTISRDNSKNTLYLQMNSLKTEDTAVYYCTRGVATFDYWGQGTLVTVSS |
| binds |  | anti-mesothelin scFv-M32 (scFv) scFv: DIRMTQSPSSLSASVGDRVTVTCQASEDINNSLNWYQQKPGKAPQLLIYDASDLETGVPSRFSGRGSGRDFTLTISSLQPEDFATYYCQQLNSYPLTFGGGTKLEIKGGGGSGGGGSGGGGSQVQLVQSGAEVKKPGASVKVSCKASGFTFIGYYLHWVRQAPGQGLEWMGIINPSGGRTSMAQKFQGRVSMTTDTSTGTVYLDLGRLGSDDTAVYYCARADNWNAGSMDVWGNGTTVTVSS |
| binds |  | anti-mesothelin scFv-M7 (scFv) scFv: DIRLTQSPSSLSASLGDRVTITCRASQAISSALAWYQQKPGKAPRLLIYDASTLESGVPSRFSGSGSGTDFTLTISSLQPEDFATYYCQQADSFPLTFGGGTKLEIKGGGGSGGGGSGGGGSQVQLVQSGAEVKKSGESLKISCKGSGYGFGAYWIAWVRQMPGKGLEWMGIIYPGDSRVIYSPYFQGQVTISADKSISTAYLQWSSLKASDTAMYYCARFGGPKFATNWFDIWGQGTTVTVSS |
|  | binds | 5.28 (bispecific antibody) single chain, scFv-G4S-scFv: QVQLVQSGAEVKKPGSSVKVSCKASGGTFSSYAISWVRQAPGQGLEWMGMINPSGGTTSYAQKFQGRVTMTRDTSTSTVYMELSSLRPEDTAVYYCARGFRMDQWGQGTLVTVSSGGGGSGGGGSGGGGSQSALTQPPSASGSPGQSVTISCTGTSSDVGAYNFVSWYQQHPGNAPKLIIYDTRKRPSGIPDRFSASKSGNTASLTVSGLQADDEADYYCSSYAGNNNLVFGGGTKLTVLGGGGSQVKLQESGPGLVKPSETLSITCTVSGFSLSDYGVHWVRQSPGKGLEWLGVIWAGGGTNYNSALMSRKTISKDNSKSQVFLKMSSLTAADTAVYYCARDKGYSYYYSMDYWGQGTTVTVSSGGGGSGGGGSGGGGSDIQLTQSPSSLSVSVGDRVTISCRASESVEYYVTSLMQWYQQKPGQAPKLLIFAASNVESGVPSRFSGSGSGTNFTLTISSVQEEDFAMYFCQQSRKVPYTFGGGTKLEIK |
|  | binds | 5.25 (bispecific antibody) single chain, scFv-G4S-scFv: QVQLVQSGAEVKKPGSSVKVSCKASGGTFSSYAISWVRQAPGQGLEWMGMINPSGGTTSYAQKFQGRVTMTRDTSTSTVYMELSSLRPEDTAVYYCARGFRMDQWGQGTLVTVSSGGGGSGGGGSGGGGSQSALTQPPSASGSPGQSVTISCTGTSSDVGAYNFVSWYQQHPGNAPKLIIYDVRKRPSGIPDRFSASKSGNTASLTVSGLQADDEADYYCSSYAGNNRLVFGGGTKLTVLGGGGSQVKLQESGPGLVKPSETLSITCTVSGFSLSDYGVHWVRQSPGKGLEWLGVIWAGGGTNYNSALMSRKTISKDNSKSQVFLKMSSLTAADTAVYYCARDKGYSYYYSMDYWGQGTTVTVSSGGGGSGGGGSGGGGSDIQLTQSPSSLSVSVGDRVTISCRASESVEYYVTSLMQWYQQKPGQAPKLLIFAASNVESGVPSRFSGSGSGTNFTLTISSVQEEDFAMYFCQQSRKVPYTFGGGTKLEIK |

Further lines, the binder ahead of its results:

| Binder | binding [1] | binding [2] |
| --- | --- | --- |
| anti-mesothelin scFv-M31 (scFv) scFv: QSALTQPPSASGSPGQSVTISCTGTSSDIGGYNSVSWYQQHPGKAPKLIIYGVSRRPSGVPDRFSGSKSANTASLTVSGLQAVDEADYYCSSYGGSNNLLFGGGTKLTVLGGGGSGGGGSGGGGSEVHLVESGGGLAQPGGSLRLSCAASGFSFSSSWMAWVRQAPGKGLEWVANIKQDGSSQYYVDSVKGRFTISRDNAKNSLSLQMNSLRAEDTAVYYCARDIWYSIDYWGQGTLVTVSS | binds |  |
| anti-mesothelin scFv-M8 (scFv) scFv: DIQLTQSPSSLSASVGDRVTITCRASQSISSSLNWYQQKPGKAPKLLIYAASSLQSGVPSRFSGSGSGTDFTLTISSLQPEDFATYSCQQSYSTPLTFGGGTKVEIKGGGGSGGGGSGGGGSQVHLVESGGGVVQPGRSLRVSCAASGFTFSGYAMYWVRQAPGKGLEYVSAITTNGGSTNYADSVKGRFTISRDNSKNTLYLQMSSLRAGDTAVYYCARGAPGYRGYYMDVWGKGTTVTVSS | binds |  |
| anti-mesothelin scFv-M20 (scFv) scFv: AIQMTQSPSSLSASVGNRVTITCRASQGISSAVAWYQQKPGKPPKLLISYASSLESGVPSRFSGSGSGTDFSLTISSLQPEDFATYFCQQFNSYPLTFGGGTKVEIKGGGGSGGGGSGGGGSQVQLVQSGAEVRKPGESLKISCKGSGYSFRDSWIAWVRQMPGQGLEWMGIIFPGDSNPIYSPSFQGQVTISADTSISTTFLQWRSLKASDSAIYYCARHAAWGAGWFDPWGQGTLVTVSS | binds |  |
| anti-mesothelin scFv-M27 (scFv) scFv: EIVLTQSPGTLSLSPGERATLSCRASQPIVASHLAWYQHKPGQAPRLLIYGASTRAAGIPDRFSGSGSGTDFTLTISRLEPEDFAVYFCQQYGISPFTFGPGTKVDIKGGGGSGGGGSGGGGSQVQLVQSGAEVKKPGESLKISCQGSGYSFTDYWIGWVRQAPGQGLEWMGWITPNNGNTNYAPKFQGRVTLTTDTSTSTAYMELRSLTSDDTAVYFCARRGRNSSGYLYYYSMDVWGQGTTVTVSS | binds |  |
| anti-mesothelin scFv-M13 (scFv) scFv: AIRMTQSPSSLSASVGDRVTITCRASQGISNSLAWYQQKPGKAPKLLLYAASRLESGVPSRFSGSGSGTDYTLTISSLQPEDFATYYCQQYYSTPFTFGPGTKLEIKGGGGSGGGGSGGGGSQVQLVQSGAEVKKPGSSVKVSCKTSADTFSANTINWVRQAPGHGLEWMGRIIPSLNIRDYAQEFQGRVTFTADESTNTVYMQLTSLRSEDTAVYYCARDPGSTWSPNQFFPHWGQGTLVTVSS | binds |  |
| anti-mesothelin scFv-M28 (scFv) scFv: QSALTQPPSASGSPGQSVTISCSGTSSDVGGYNFVSWYQHHPGKAPKLMIYEVSKRPSGVPDRFSGSKSGNTASLTVSGLQAEDEADYYCSSYAGRNNPYLFGTGTKLTVLGGGGSGGGGSGGGGSQLQLQESGAEVKKPGSSVKVSCKASGGTFSSYAISWVRQAPGQGLEWMGGIIPIFGTANYAQKFQGRVTITADESTSTAYMELSSLRSEDTAVYYCARDLGGYSYGHGLDYWGQGTLVTVSS | binds |  |
| 4.6 (bispecific antibody) single chain, scFv-G4S-scFv: QVQLVQSGAEVKKPGSSVKVSCKASGGTFSSYAISWVRQAPGQGLEWMGMINPSGGTTSYAQKFQGRVTMTRDTSTSTVYMELSSLRPEDTAVYYCARGFRMDQWGQGTLVTVSSGGGGSGGGGSGGGGSQSALTQPPSASGSPGQSVTISCTGTSSDVGAYNFVSWYQQHPGNAPKLIIYDVRKRPSGIPDRFSASKSGNTASLTVSGLQADDEADYYCSSYAGNNNLVFGGGTKLTVLGGGGSQVKLQESGPGLVKPSETLSITCTVSGFSLSDYGVHWVRQSPGKGLEWLGVIWAGGGTNYNSALMSRKTISKDNSKSQVFLKMSSLTAADTAVYYCARDKGYSYYYSMDYWGQGTTVTVSSGGGGSGGGGSGGGGSDIQLTQSPSSLSVSVGDRVTISCRASESVEYYVTSLMQWYQQKPGQAPKLLIFAASNVESGVPSRFSGSGSGTNFTLTISSVQEEDFAMYFCQQSRKVPYTFGGGTKLEIK |  | binds |
| 5.12 (bispecific antibody) single chain, scFv-G4S-scFv: QVQLVQSGAEVKKPGSSVKVSCKASGGTFSSYAVSWVRQAPGQGLEWMGMINPSGGTTSYAQKFQGRVTMTRDTSTSTVYMELSSLRPEDTAVYYCARGFRMDQWGQGTLVTVSSGGGGSGGGGSGGGGSQSALTQPPSASGSPGQSVTISCTGTSSDVGAYNFVSWYQQHPGNAPKLIIYDVRKRPRGIPDRFSASKSGNTASLTVSGLQADDEADYYCSSYAGNNNLVFGGGTKLTVLGGGGSQVKLQESGPGLVKPSETLSITCTVSGFSLSDYGVHWVRQSPGKGLEWLGVIWAGGGTNYNSALMSRKTISKDNSKSQVFLKMSSLTAADTAVYYCARDKGYSYYYSMDYWGQGTTVTVSSGGGGSGGGGSGGGGSDIQLTQSPSSLSVSVGDRVTISCRASESVEYYVTSLMQWYQQKPGQAPKLLIFAASNVESGVPSRFSGSGSGTNFTLTISSVQEEDFAMYFCQQSRKVPYTFGGGTKLEIK |  | binds |
| 5.36 (bispecific antibody) single chain, scFv-G4S-scFv: QVQLVQSGAQVKKPGSSVKVSCKASGGTFSSYAISWVRQAPGQGLEWMGMINPSGGTTSYAQKFQGRVTMTRDTSTSTVYMELSSLRPEDTAVYYCARGFRMDQWGQGTLVTVSSGGGGSGGGGSGGGGSQSALTQPPSASGSPGQSVTISCTGTSSDVGAYNFVSWYQQHPGNAPKLIIYDVRKRPIGIPDRFSASKSGNTASLTVSGLQADDEADYYCSSYAGNNNLVFGGGTKLTVLGGGGSQVKLQESGPGLVKPSETLSITCTVSGFSLSDYGVHWVRQSPGKGLEWLGVIWAGGGTNYNSALMSRKTISKDNSKSQVFLKMSSLTAADTAVYYCARDKGYSYYYSMDYWGQGTTVTVSSGGGGSGGGGSGGGGSDIQLTQSPSSLSVSVGDRVTISCRASESVEYYVTSLMQWYQQKPGQAPKLLIFAASNVESGVPSRFSGSGSGTNFTLTISSVQEEDFAMYFCQQSRKVPYTFGGGTKLEIK |  | binds |
